# Reference: PubChem BioAssay AID1347076 (National Center for Advancing Translational Sciences (NCATS), 2019)
# The campaign covered roughly 400,000 compounds. About 13,000 (3.2%) were called active. The shares of active, inactive and inconclusive entries below differ from those in the screen. Calls come from the whole dose curve; as a rule, active = well fitted cell-killing curve with a large enough effect; inconclusive = small, poorly fitted or top-dose-only effect, or effect the other way; inactive = flat fitted curve, though single readings scatter. Where the call is inconclusive, the potency comes from a doubtful curve fit.
# Assay: qHTS assay for MDR1-selective chemotherapeutics: Primary screen using the drug-selected MDR subline cells KB-V1; note: nearly all actives have a fitted effect of over 60% in size
# Settings: KB-V1 MDR cells viability, CellTiter-Glo, 72 h; activity change, negative = cytotoxicity: at 46.1 µM (top of the series)
# Outline: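 KB-V1 MDR subline cells in DMEM (phenol-red free, 10% FBS) exposed to compounds in qHTS concentration series for 72 h at 37 degrees C. Viability read by CellTiter-Glo luminescence; concentration-effect curves fitted after normalization and correction.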
# % is set by controls: 0 for no effect and ±100 for the full control effect; potency is the fitted concentration of half-maximal effect.
Compound,"activity change, negative = cytotoxicity",Potency
O=C(OC1C2CCC1C1CN(CCc3ccccc3)CC12)c1ccccc1 (configuration not stated),inactive: -4.52%,–
CC1CCN(S(=O)(=O)c2ccc(C(=O)NCc3ccc4c(c3)OCO4)cc2)CC1,inactive: -3.47%,–
Cn1c(=O)c2c(ncn2CCOc2cccc(Br)c2)n(C)c1=O,–,"inconclusive: 23.1 µM [cytotoxic, single point]"
Cc1c(NC(=S)/C=C2\N(C)c3ccccc3C2(C)C)c(=O)n(-c2ccccc2)n1C,–,active: 23.1 µM
CCOC(=O)Nc1ccc2c(c1)N(C(=O)CCN(C)C)c1ccccc1S2,–,"inconclusive: 13 µM [cytotoxic, partial curve]"
O=C(CN1C(=O)NC(Cc2ccccc2)(Cc2ccccc2)C1=O)NCC1CCCCC1,–,active: 20.6 µM
COc1ccc(-c2ccc3[nH]c4c(c3c2)CCN2C[C@@H]([C@H](C)OC(=O)Nc3cc(Cl)cc(Cl)c3)[C@@H](N(C)C(=O)Nc3cc(Cl)cc(Cl)c3)C[C@@H]42)cc1,–,"inconclusive: 16.4 µM [rising, partial curve]"
CN1C(=O)C(Cl)(Cl)C(=O)c2ccccc21,inactive: -6.6%,–
O=C(CSc1ccccn1)Nc1nc2ccccc2s1,inactive: 0%,–
O=C(NC1CC2CCCC(C1)N2C(=O)Nc1ccccc1)c1ccccc1 (configuration not stated),–,"inconclusive: 29.1 µM [rising, partial curve, poor fit]"
CCOC(=O)c1ccc(NC(=O)N2CCOc3ccccc32)cc1,inactive: 21.5%,–
CCOc1ccccc1NC(=O)C(Sc1nnc2ccccn12)c1ccccc1 (configuration not stated),–,"inconclusive: 8.2 µM [cytotoxic, partial curve]"
O=C(c1ccccc1)c1ccccc1C(=O)N1CCN(C(=O)c2ccccc2)CC1,inactive: -17.1%,–
CCOc1cc(OCC)cc(C(=O)NC(=S)Nc2cccc(C(F)(F)F)c2)c1,–,"inconclusive: 29.1 µM [rising, single point]"
Cc1ccc(CN(C)C(=O)c2cccc(S(=O)(=O)N3CCN(c4ccccc4)CC3)c2)cc1,–,active: 18.4 µM
COc1cc(NC(=O)COc2ccc(Cl)cc2)ccc1-c1cc2ccccc2oc1=O,–,"inconclusive: 29.1 µM [cytotoxic, single point]"
CCC(C)(C)n1nnnc1C(c1cc2cc(C)ccc2[nH]c1=O)N1CCCc2ccccc21 (configuration not stated),–,"inconclusive: 9.2 µM [cytotoxic, partial curve]"
CCOc1ccc(CCNC(=O)c2cnc3sc(N4CCC(C)CC4)nn3c2=O)cc1,inactive: -5.71%,–
O=[N+]([O-])c1ccc(-c2ccc(/C=N/c3c(-c4ccco4)nc4ccccn34)o2)cc1,–,"inconclusive: 20.6 µM [cytotoxic, single point]"
CC(C)(C)C(=O)Nc1nc(=S)ss1,–,"inconclusive: 29.1 µM [cytotoxic, single point]"
O=C(C1CCC1)N1CCc2cc(S(=O)(=O)Nc3ccc4c(c3)OCCO4)ccc21,–,"inconclusive: 6.51 µM [cytotoxic, full curve]"
NC(=O)COc1ccccc1,inactive: -11.9%,–
COc1cccc(/C=N/n2c(=S)n(C)c3cc(C)c(C)cc32)c1OC,–,active: 16.4 µM
O=C(Cc1ccc(Br)cc1)N1CCN(c2ccccc2)CC1,–,"inconclusive: 16.4 µM [cytotoxic, single point]"

Compound,"activity change, negative = cytotoxicity",Potency
Oc1ccc(N=Nc2c(O)ccc3ccccc23)cc1,–,"inconclusive: 16.4 µM [cytotoxic, single point]"
CCC(C)N(C)Cc1cccc(C2(O)CCN(S(=O)(=O)c3ccc(F)c(C)c3)CC2)c1 (configuration not stated),–,"inconclusive: 6.51 µM [cytotoxic, partial curve, poor fit]"
O=C(N/N=C\c1ccc[nH]1)c1cncc(Br)c1,–,"inconclusive: 29.1 µM [rising, partial curve, poor fit]"
COc1ccc(S(=O)(=O)NCCSC(C)(C)C)cc1Cl,–,"inconclusive: 20.6 µM [cytotoxic, single point]"
CC(C(=O)Nc1ccccc1)C(=O)Nc1ccccc1,inactive: -5.3%,–
CCOC(=O)c1c(NC(=O)Cn2nc(C(F)(F)F)cc2C)sc2c1CCC2,–,active: 20.6 µM
CS(=O)(=O)N(CC(=O)N1CCc2ccccc2C1)c1ccc(Br)cc1,–,"inconclusive: 18.4 µM [cytotoxic, partial curve]"
COc1ccc(C(=O)Nc2cc(Cl)ccc2C(=O)O)cc1,inactive: 16.1%,–
CN(C(=O)CCl)C1CCCc2ccccc21 (configuration not stated),–,"inconclusive: 18.4 µM [cytotoxic, single point]"
Cc1nnc(SCC(=O)N2CCN(c3cccc(Cl)c3)CC2)n1C1CC1,–,"inconclusive: 29.1 µM [cytotoxic, single point]"
C[C@@H]1CN([C@H](C)CO)C(=O)CCCn2nncc2CO[C@H]1CN(C)Cc1ccc(O)cc1,inactive: -7.21%,–
CCCCCSc1nc2sc3c(c2c(=O)n1-c1ccccc1)CCN(C(C)=O)C3,inconclusive: -43.5%,–
O=C(c1cccs1)N1C[C@@H](n2cc(C3CC3)nn2)[C@H](O)C[C@@H]1c1ccc(Cl)cc1,inactive: -13.8%,–
Clc1ccc(CNc2ncccn2)cc1,–,"inconclusive: 11.6 µM [rising, partial curve, poor fit]"
CCn1c(SCC(=O)NC(C)(C)C)nnc1-c1ccoc1C,–,"inconclusive: 20.6 µM [cytotoxic, single point]"
O=C(NCc1cccs1)C1CCCN(C(=O)Nc2ccc(F)cc2)C1 (configuration not stated),–,"inconclusive: 11.6 µM [cytotoxic, single point]"
O=C(Cn1ncc2c3ccccc3n(Cc3ccccc3)c2c1=O)N1CCN(c2ccccn2)CC1,inactive: 4.46%,–
O=C(c1ccc2c(c1)OCO2)N1CCN(c2cccc(C(F)(F)F)c2)CC1,–,active: 16.4 µM
CCCCOc1ccc(CN2C(=O)C(=O)c3cc(Br)cc(C)c32)cc1OC,–,"inconclusive: 29.1 µM [cytotoxic, single point]"
CC1CN(Cc2csc(-c3ccc(Cl)cc3)n2)CC(C)O1 (configuration not stated),–,"inconclusive: 20.6 µM [cytotoxic, partial curve]"
O=C(NCc1ccccc1Cl)C1CCCN(C(=O)c2cnn(-c3ccccc3)c2-n2cccc2)C1 (configuration not stated),inactive: 1.88%,–
Cc1cc(NC(=O)CS(=O)(=O)c2cn(Cc3cccc(C(F)(F)F)c3)c3ccccc23)no1,inactive: -0.478%,–
Cc1ccc(/C=C/C(=O)OCC(=O)NC(=O)NCc2ccco2)cc1,inactive: 0%,–
CCCCCCSc1cc(-c2nc3ccc(C)cn3c2NCCCC)ccc1OC,–,"inconclusive: 29.1 µM [cytotoxic, single point]"

Compound,"activity change, negative = cytotoxicity",Potency
CC(C)(Oc1ccc(Cl)cc1)C(=O)N1CCN(c2ccccn2)CC1,–,"inconclusive: 16.4 µM [cytotoxic, partial curve, poor fit]"
OC(COc1c(F)cc(Br)cc1F)CN1CCN(c2ccc(F)cc2)CC1 (configuration not stated),–,active: 16.4 µM
O=C(O)CSCC(=O)Nc1ccccc1SCCS(=O)(=O)c1ccc(Cl)cc1,–,"inconclusive: 10.3 µM [rising, partial curve, poor fit]"
COc1ccc(N2C(=O)C(CC(N)=O)N(NC(=O)CCc3ccccc3)C2=O)cc1 (configuration not stated),–,"inconclusive: 32.6 µM [rising, single point]"
COCCCNC(=O)Cn1c(=O)oc2cc(S(=O)(=O)N3CC(C)CC(C)C3)ccc21 (configuration not stated),–,"inconclusive: 0.411 µM [cytotoxic, full curve, poor fit]"
COc1ccc(S(=O)(=O)N2CCN(CC(=O)NC3CC3)CC2)cc1,inactive: 5.79%,–
COc1cccc(/C=N/Nc2nc3ccccc3n3cnnc23)c1,inactive: 28.5%,–
C=CCn1c2ccccc2c2n[nH]c(=S)nc21,–,"inconclusive: 29.1 µM [cytotoxic, single point]"
COCCSc1ccccc1C(=O)Nc1cc(C)ccn1,inactive: -24.9%,–
CN1CCN(C2Cc3cc(Cl)ccc3Sc3cc(F)ccc32)CC1 (configuration not stated),–,active: 18.4 µM
CC1Cc2ccccc2N1c1ncnc2c1nnn2Cc1ccccc1 (configuration not stated),–,"inconclusive: 32.6 µM [cytotoxic, single point]"
COc1ccccc1NC(=O)c1ccc(-n2ccnc2)c([N+](=O)[O-])c1,–,"inconclusive: 16.4 µM [cytotoxic, single point]"
CC(NC(=O)c1ccccc1NC(=O)CN1CCc2ccccc2C1)c1ccccc1 (configuration not stated),–,active: 18.4 µM
COc1ccc(CNCCCC(=O)Nc2c(Cl)ccc(C)c2Cl)cc1OC,inactive: -16.9%,–
COc1cc2c(cc1OC)C(=O)N1[C@H]3c4cc(Cl)ccc4OC[C@@H]3[C@H](c3ccccc3)[C@]1(C)C(=O)N2,–,"inconclusive: 29.1 µM [cytotoxic, single point]"
Cc1ccc(-n2c(SCC(=O)N/N=C/c3ccccc3C(=O)O)nnc2-c2ccccc2)cc1,–,"inconclusive: 2.31 µM [rising, full curve, poor fit]"
N[C@@H](Cc1ccc(O)cc1)c1nnc([C@H](CO)NC(=O)C2CCNCC2)o1,inactive: 16.2%,–
COc1ccc2c3c(cccc13)C(=O)N(O)C2=O,–,"inconclusive: 29.1 µM [cytotoxic, single point]"
c1ccc(COc2cccc(-c3cc4nc(NCCN5CCOCC5)ccn4n3)c2)cc1,inactive: 0%,–
CN(C[C@H](Cc1ccccc1)N(C[C@H](Cc1cccc2ccccc12)N(CCc1ccccc1)N=O)N=O)N=O,–,"inconclusive: 4.61 µM [cytotoxic, full curve]"
CCn1c(SCC(=O)N2CCCCCC2)nc2ccccc2c1=O,–,active: 9.2 µM
CC(=O)c1ccc(Nc2cc(C)nc3c(C)cc(C)cc23)cc1,–,"inconclusive: 20.6 µM [cytotoxic, partial curve, poor fit]"
N#C/C(=N/Nc1ccc(S(=O)(=O)N2CCOCC2)cc1)C(N)=O,–,"inconclusive: 29.1 µM [cytotoxic, single point]"
CC(C)(Oc1ccc(Br)cc1)C(=O)N1CCc2ccccc21,–,active: 20.6 µM

# As a short view, 3 of the compounds above.
Compound,"activity change, negative = cytotoxicity",Potency
C[C@@H]1CN([C@H](C)CO)C(=O)CCCn2nncc2CO[C@H]1CN(C)Cc1ccc(O)cc1,inactive: -7.21%,–
CCCCCSc1nc2sc3c(c2c(=O)n1-c1ccccc1)CCN(C(C)=O)C3,inconclusive: -43.5%,–
O=C(c1cccs1)N1C[C@@H](n2cc(C3CC3)nn2)[C@H](O)C[C@@H]1c1ccc(Cl)cc1,inactive: -13.8%,–
